Where a name gives a salt, the structure may show the parent alone. Some of the results follow. The calls rarely recur for the same compound in another form.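 Kinases, fused to nanoluciferase, were expressed in K562 cells; luminescence was measured every 4 h from 2 to 18 h as percent of control (DMSO = 100%, positive control = 0%). A time point is decreased if signal falls significantly (2 sigma). Hits were called by the authors by a rule that is not shown; the count of time points alone does not decide it.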
Experiments:
Assay in all cases: kinase-Nluc reporter destabilization hit call (1 = scored as downregulated) (binary); higher = compound decreases kinase abundance
Details in all cases: K562; 2-18 h
[1] = target: CDK7 (UniProt P50613)
[2] = target: CDK9 (UniProt P50750)
[3] = target: CHEK2 (UniProt O96017)
[4] = target: CSF1R (UniProt P07333)
[5] = target: CSK (UniProt P41240)
[6] = target: CSNK1A1 (UniProt P48729)
[7] = target: CSNK1D (UniProt P48730)
[8] = target: DDR1 (UniProt Q08345)
[9] = target: DYRK1B (UniProt Q9Y463)
[10] = target: DYRK2 (UniProt Q92630)

Protein sequences, listed by entry. Tags and fused reporters are not part of them. Lines headed by an entry give the natural chain unless they say otherwise; changes in a name come on top.
UniProt P50613: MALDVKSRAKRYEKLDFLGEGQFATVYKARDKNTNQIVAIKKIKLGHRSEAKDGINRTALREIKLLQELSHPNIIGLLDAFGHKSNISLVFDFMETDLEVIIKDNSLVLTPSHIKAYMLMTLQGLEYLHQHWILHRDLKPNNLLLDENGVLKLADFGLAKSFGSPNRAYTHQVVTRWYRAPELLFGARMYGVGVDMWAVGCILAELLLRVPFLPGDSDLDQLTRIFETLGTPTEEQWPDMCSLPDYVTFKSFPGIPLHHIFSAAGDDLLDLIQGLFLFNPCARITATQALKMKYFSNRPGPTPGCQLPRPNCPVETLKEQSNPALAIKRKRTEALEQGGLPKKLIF
UniProt P50750, whole entry: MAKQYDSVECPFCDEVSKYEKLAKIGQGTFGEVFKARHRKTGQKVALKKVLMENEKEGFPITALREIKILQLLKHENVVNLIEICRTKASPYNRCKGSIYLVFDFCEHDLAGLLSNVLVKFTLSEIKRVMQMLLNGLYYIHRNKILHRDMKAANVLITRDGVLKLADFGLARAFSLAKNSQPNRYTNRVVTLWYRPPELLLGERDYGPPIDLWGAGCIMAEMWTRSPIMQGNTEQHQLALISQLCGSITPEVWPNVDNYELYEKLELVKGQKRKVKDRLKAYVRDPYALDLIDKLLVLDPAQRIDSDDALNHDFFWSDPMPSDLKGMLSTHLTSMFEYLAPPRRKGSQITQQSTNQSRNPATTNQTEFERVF
UniProt O96017, whole entry: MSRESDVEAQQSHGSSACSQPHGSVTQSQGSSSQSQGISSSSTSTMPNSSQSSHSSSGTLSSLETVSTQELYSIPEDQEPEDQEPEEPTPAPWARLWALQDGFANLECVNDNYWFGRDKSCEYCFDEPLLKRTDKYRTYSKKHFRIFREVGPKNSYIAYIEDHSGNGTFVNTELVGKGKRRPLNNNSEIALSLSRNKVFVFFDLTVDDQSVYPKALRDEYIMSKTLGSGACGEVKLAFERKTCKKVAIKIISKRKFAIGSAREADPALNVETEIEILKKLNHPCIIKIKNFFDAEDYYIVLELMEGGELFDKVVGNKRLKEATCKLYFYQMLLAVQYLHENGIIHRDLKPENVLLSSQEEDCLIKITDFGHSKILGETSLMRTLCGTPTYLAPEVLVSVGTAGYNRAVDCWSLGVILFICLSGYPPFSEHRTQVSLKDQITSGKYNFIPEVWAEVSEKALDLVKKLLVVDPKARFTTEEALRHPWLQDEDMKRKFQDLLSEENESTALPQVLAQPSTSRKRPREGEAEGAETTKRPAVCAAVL
UniProt P07333, whole entry: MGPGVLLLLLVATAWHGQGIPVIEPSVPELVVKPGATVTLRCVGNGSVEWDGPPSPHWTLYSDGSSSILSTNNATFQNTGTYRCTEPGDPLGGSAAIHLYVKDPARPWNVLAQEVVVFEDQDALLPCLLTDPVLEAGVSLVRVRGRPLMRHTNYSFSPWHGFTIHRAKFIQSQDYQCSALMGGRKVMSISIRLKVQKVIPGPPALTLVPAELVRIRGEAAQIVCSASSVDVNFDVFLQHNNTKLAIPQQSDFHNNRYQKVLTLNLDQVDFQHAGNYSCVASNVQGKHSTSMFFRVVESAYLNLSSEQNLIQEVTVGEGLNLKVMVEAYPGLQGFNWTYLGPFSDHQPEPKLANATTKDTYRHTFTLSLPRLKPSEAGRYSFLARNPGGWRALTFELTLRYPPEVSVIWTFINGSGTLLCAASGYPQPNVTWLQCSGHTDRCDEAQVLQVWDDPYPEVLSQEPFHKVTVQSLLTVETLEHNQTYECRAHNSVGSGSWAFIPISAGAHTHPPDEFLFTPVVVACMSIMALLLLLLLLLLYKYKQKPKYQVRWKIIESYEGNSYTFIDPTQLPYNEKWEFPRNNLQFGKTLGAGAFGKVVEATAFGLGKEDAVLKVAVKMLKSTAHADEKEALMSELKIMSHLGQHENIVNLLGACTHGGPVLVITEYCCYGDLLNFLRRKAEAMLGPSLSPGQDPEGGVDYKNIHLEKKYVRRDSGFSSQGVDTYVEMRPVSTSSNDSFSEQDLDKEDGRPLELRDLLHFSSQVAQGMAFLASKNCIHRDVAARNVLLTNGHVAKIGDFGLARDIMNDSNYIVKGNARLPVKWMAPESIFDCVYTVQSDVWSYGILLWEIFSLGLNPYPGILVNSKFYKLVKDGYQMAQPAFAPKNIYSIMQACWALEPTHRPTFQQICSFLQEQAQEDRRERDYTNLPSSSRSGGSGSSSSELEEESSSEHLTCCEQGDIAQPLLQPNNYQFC
UniProt P41240: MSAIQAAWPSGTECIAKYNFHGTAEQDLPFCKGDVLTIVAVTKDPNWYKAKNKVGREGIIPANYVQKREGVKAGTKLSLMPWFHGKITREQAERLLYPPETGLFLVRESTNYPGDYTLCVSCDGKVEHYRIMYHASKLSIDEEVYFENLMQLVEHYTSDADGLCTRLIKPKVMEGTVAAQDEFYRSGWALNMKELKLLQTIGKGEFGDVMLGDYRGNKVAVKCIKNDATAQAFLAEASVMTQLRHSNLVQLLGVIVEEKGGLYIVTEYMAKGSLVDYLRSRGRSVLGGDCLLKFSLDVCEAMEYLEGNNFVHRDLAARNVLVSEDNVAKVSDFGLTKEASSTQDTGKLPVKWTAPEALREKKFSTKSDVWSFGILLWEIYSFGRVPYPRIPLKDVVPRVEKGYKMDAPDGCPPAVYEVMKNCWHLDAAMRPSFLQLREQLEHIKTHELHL
UniProt P48729: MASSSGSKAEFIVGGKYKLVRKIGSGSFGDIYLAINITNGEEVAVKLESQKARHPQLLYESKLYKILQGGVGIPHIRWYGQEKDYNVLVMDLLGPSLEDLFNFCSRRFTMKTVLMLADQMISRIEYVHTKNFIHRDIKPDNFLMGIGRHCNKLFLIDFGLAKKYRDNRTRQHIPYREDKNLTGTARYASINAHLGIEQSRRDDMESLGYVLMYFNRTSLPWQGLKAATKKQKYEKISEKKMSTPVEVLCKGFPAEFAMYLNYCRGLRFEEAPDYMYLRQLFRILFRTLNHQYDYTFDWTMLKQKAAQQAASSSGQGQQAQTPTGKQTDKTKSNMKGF
UniProt P48730: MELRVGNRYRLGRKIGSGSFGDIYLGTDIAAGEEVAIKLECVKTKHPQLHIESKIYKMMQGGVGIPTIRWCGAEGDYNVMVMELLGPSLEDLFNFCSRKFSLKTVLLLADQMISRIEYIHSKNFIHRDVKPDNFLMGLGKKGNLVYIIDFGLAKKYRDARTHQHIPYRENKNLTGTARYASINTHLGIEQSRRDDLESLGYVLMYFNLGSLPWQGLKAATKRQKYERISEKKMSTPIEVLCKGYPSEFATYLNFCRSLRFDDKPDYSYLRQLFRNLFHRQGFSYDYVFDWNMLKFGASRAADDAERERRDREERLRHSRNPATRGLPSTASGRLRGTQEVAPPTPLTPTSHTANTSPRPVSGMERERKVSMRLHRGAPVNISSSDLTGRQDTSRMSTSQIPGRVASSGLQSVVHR
UniProt Q08345: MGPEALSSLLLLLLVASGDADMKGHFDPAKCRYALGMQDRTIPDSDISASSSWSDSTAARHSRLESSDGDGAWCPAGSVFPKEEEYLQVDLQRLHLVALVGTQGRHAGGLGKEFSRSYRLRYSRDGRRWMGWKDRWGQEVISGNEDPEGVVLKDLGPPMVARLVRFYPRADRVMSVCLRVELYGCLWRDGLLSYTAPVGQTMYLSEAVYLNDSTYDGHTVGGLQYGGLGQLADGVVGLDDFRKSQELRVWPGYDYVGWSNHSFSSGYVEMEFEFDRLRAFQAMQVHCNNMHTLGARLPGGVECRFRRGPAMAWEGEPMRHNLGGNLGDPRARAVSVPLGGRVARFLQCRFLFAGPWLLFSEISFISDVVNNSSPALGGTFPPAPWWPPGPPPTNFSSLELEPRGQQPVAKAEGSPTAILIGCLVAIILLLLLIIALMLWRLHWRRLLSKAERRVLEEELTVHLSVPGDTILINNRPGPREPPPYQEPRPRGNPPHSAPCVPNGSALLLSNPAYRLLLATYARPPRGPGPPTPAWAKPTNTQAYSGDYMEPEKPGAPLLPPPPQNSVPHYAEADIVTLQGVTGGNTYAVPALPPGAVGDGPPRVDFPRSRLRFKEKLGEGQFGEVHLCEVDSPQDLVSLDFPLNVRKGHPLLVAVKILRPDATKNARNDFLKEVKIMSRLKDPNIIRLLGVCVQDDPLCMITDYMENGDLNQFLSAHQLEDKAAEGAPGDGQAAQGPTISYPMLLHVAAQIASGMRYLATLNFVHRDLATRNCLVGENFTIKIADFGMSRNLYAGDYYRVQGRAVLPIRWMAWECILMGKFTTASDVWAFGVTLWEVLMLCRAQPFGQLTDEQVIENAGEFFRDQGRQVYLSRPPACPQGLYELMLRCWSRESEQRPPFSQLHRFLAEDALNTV
UniProt Q9Y463, whole entry, looked up: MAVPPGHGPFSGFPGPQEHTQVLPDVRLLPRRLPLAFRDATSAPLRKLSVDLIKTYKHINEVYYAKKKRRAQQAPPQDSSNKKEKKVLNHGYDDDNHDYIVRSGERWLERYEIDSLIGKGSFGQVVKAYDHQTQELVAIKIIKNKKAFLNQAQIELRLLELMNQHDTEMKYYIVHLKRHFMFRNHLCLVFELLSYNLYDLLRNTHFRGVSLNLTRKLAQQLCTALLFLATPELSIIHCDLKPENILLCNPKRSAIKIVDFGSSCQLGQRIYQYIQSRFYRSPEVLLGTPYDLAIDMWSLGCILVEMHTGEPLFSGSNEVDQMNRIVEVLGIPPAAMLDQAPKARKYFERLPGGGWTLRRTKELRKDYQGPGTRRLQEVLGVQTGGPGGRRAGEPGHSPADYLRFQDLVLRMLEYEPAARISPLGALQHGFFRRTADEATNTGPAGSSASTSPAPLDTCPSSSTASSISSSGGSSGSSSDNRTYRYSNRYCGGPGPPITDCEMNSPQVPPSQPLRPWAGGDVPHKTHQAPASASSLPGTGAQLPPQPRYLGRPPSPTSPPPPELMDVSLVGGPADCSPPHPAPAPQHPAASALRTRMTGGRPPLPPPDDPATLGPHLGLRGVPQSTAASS
UniProt Q92630: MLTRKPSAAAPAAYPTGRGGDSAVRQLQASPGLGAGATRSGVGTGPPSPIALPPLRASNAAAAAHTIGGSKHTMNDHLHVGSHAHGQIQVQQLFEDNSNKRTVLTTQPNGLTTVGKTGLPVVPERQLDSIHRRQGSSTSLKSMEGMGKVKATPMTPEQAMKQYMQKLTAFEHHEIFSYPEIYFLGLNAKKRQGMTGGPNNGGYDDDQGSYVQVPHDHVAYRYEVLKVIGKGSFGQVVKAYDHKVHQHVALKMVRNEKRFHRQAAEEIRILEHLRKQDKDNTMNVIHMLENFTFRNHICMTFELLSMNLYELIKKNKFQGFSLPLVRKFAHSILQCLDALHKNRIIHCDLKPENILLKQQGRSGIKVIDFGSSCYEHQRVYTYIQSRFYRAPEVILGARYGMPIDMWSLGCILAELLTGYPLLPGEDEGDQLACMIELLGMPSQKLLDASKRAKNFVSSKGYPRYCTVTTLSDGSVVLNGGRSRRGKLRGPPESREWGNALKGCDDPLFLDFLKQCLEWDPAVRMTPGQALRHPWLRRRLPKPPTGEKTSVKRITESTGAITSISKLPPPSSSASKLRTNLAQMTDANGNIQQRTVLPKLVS

Measured: kinase-Nluc reporter destabilization hit call

CNC(=O)c1nnc(NC(=O)C2CC2)cc1Nc1cccc(-c2ncn(C)n2)c1OC [Deucravacitinib] (10 µM)
inactive: [1] 0 | [2] 0 | [3] 0 | [4] 0 | [5] 0 | [6] 0 | [7] 0 | [8] 0 | [9] 0 | [10] 0

C1=N/C2=N/c3ccc(OCCN4CCCC4)c(c3)COC/C=C/COCc3cccc(c3)C(=C1)N2 [Pacritinib] (2.5 µM)
inactive: [1] 0 | [2] 0 | [3] 0 | [4] 0 | [5] 0 | [6] 0 | [7] 0 | [8] 0 | [9] 0 | [10] 0

C=CC(=O)N1CCN(c2nc(OC[C@@H]3CCCN3C)nc3c2CCN(c2cccc4cccc(C)c24)C3)C[C@@H]1CC#N (2.5 µM)
inactive: [1] 0 | [2] 0 | [3] 0 | [4] 0 | [5] 0 | [6] 0 | [7] 0 | [8] 0 | [9] 0 | [10] 0

C[C@@H]1O[C@@H](O[C@H]2[C@H](OC(=O)[C@]34CCC(C)(C)C[C@H]3C3=CC[C@@H]5[C@@]6(C)C[C@H](O)[C@H](O[C@@H]7O[C@H](CO)[C@@H](O)[C@H](O)[C@H]7O)C(CO)(CO)[C@@H]6CC[C@@]5(C)[C@]3(C)C[C@H]4O)OC[C@H](O)[C@@H]2O)[C@H](O)[C@H](O)[C@H]1O[C@@H]1OC[C@@H](O)[C@H](O[C@@H]2OC[C@](O)(CO)[C@H]2O)[C@H]1O [Platycodin D] (10 µM)
inactive: [1] 0 | [2] 0 | [3] 0 | [4] 0 | [5] 0 | [6] 0 | [7] 0 | [8] 0 | [9] 0 | [10] 0

CNS(=O)(=O)C[C@H]1CC[C@H](N(C)c2[nH]cnc3nccc2-3)CC1 [Oclacitinib (maleate)] (10 µM)
inactive: [1] 0 | [2] 0 | [3] 0 | [4] 0 | [5] 0 | [6] 0 | [7] 0 | [8] 0 | [9] 0 | [10] 0

Cn1sc(=O)n(Cc2ccccc2)c1=O (10 µM)
inactive: [1] 0 | [2] 0 | [3] 0 | [4] 0 | [5] 0 | [6] 0 | [7] 0 | [8] 0 | [9] 0 | [10] 0

CC1=C(C(=O)Nc2ccc3[nH]ncc3c2)C(c2ccc(F)c(C(=O)NCc3ccccn3)c2)NC(=O)N1 (stereo not given) (10 µM)
inactive: [1] 0 | [2] 0 | [3] 0 | [4] 0 | [5] 0 | [6] 0 | [7] 0 | [8] 0 | [9] 0 | [10] 0

Arranged by heavy-atom count (descending): some entries from above
C=CC(=O)N1CCN(c2nc(OC[C@@H]3CCCN3C)nc3c2CCN(c2cccc4cccc(C)c24)C3)C[C@@H]1CC#N (2.5 µM)
inactive: [1] 0 | [2] 0 | [3] 0 | [4] 0 | [5] 0 | [6] 0 | [7] 0 | [8] 0 | [9] 0 | [10] 0

CC1=C(C(=O)Nc2ccc3[nH]ncc3c2)C(c2ccc(F)c(C(=O)NCc3ccccn3)c2)NC(=O)N1 (stereo not given) (10 µM)
inactive: [1] 0 | [2] 0 | [3] 0 | [4] 0 | [5] 0 | [6] 0 | [7] 0 | [8] 0 | [9] 0 | [10] 0

CNS(=O)(=O)C[C@H]1CC[C@H](N(C)c2[nH]cnc3nccc2-3)CC1 [Oclacitinib (maleate)] (10 µM)
inactive: [1] 0 | [2] 0 | [3] 0 | [4] 0 | [5] 0 | [6] 0 | [7] 0 | [8] 0 | [9] 0 | [10] 0

Further structures follow:

Cn1cc(C2=C(c3c4n(c5ccccc35)CCC(CN)C4)C(=O)NC2=O)c2ccccc21 (stereo not given) [Bisindolylmaleimide X (hydrochloride)] (2.5 µM)
inactive: [1] 0 | [2] 0 | [3] 0 | [4] 0 | [5] 0 | [6] 0 | [7] 0 | [8] 0 | [9] 0 | [10] 0

O=C(Nc1ncc(SCCN2CCCC2)s1)[C@]1(c2ccc(S(=O)(=O)C3CC3)cc2)C[C@H]1C1CCCCC1 [Globalagliatin] (2.5 µM)
inactive: [1] 0 | [2] 0 | [3] 0 | [4] 0 | [5] 0 | [6] 0 | [7] 0 | [8] 0 | [9] 0 | [10] 0

O=c1sn(-c2cccc3ccccc23)c(=O)n1Cc1ccccc1 [Tideglusib] (10 µM)
inactive: [1] 0 | [2] 0 | [3] 0 | [4] 0 | [5] 0 | [6] 0 | [7] 0 | [8] 0 | [9] 0 | [10] 0

C[C@@H]1CN(CC(=O)Nc2ccc3c(c2)Cc2cccc(-c4cc(=O)cc(N5CCOCC5)o4)c2S3)C[C@H](C)O1 (2.5 µM)
inactive: [1] 0 | [2] 0 | [3] 0 | [4] 0 | [5] 0 | [6] 0 | [7] 0 | [8] 0 | [9] 0 | [10] 0

CCS(=O)(=O)c1ccc(Oc2cc(O[C@@H](C)CO)cc(C(=O)Nc3ccn(C)n3)c2)cn1 (10 µM)
inactive: [1] 0 | [2] 0 | [3] 0 | [4] 0 | [5] 0 | [6] 0 | [7] 0 | [8] 0 | [9] 0 | [10] 0

O=C1NCCSc2c1sc1ccc(O)cc21 (2.5 µM)
inactive: [1] 0 | [2] 0 | [3] 0 | [4] 0 | [5] 0 | [6] 0 | [7] 0 | [8] 0 | [9] 0 | [10] 0

Cc1cc([N+](=O)[O-])c(NS(=O)(=O)c2cccc(C(=O)O)c2)cc1-c1cccnc1 [Alofanib] (10 µM)
inactive: [1] 0 | [2] 0 | [3] 0 | [4] 0 | [5] 0 | [6] 0 | [7] 0 | [8] 0 | [9] 0 | [10] 0

CCCCCC1CC1CC1CC1CCCCCCCC(=O)O (stereo not given) (10 µM)
inactive: [1] 0 | [2] 0 | [3] 0 | [4] 0 | [5] 0 | [6] 0 | [7] 0 | [8] 0 | [9] 0 | [10] 0

O=C1C(=Cc2ccc(O)c(O)c2)Oc2ccccc21 (2.5 µM)
inactive: [1] 0 | [2] 0 | [3] 0 | [4] 0 | [5] 0 | [6] 0 | [7] 0 | [8] 0 | [9] 0 | [10] 0

CCOC(=O)C1=C[C@]2(CC)CCCN3CCc4c(n1c1ccccc41)[C@@H]32 [Vinpocetine] (10 µM)
inactive: [1] 0 | [2] 0 | [3] 0 | [4] 0 | [5] 0 | [6] 0 | [7] 0 | [8] 0 | [9] 0 | [10] 0

CCCC[C@H](CO)Nc1nc(NC)ncc1OC [Interferon receptor inducer-1] (10 µM)
inactive: [1] 0 | [2] 0 | [3] 0 | [4] 0 | [5] 0 | [6] 0 | [7] 0 | [8] 0 | [9] 0 | [10] 0

CC(=O)c1cc(O)ccc1O [2,5-Dihydroxyacetophenone] (10 µM)
inactive: [1] 0 | [2] 0 | [3] 0 | [4] 0 | [5] 0 | [6] 0 | [7] 0 | [8] 0 | [9] 0 | [10] 0

O=C(O)/C=C/c1cc(Br)c(Br)c(Br)c1Br (10 µM)
inactive: [1] 0 | [2] 0 | [3] 0 | [4] 0 | [5] 0 | [6] 0 | [7] 0 | [8] 0 | [9] 0 | [10] 0

NC(=O)c1cccc2c(N[C@H](CN3CCC3)c3ccc(Cl)c(C(F)(F)F)c3)ncnc12 (10 µM)
inactive: [1] 0 | [2] 0 | [3] 0 | [4] 0 | [5] 0 | [6] 0 | [7] 0 | [8] 0 | [9] 0 | [10] 0

O=S(=O)(N=Cc1c(O)ccc2ccccc12)c1cccs1 (10 µM)
inactive: [1] 0 | [2] 0 | [3] 0 | [4] 0 | [5] 0 | [6] 0 | [7] 0 | [8] 0 | [9] 0 | [10] 0

O=C1c2cccc(O)c2C(=O)c2c(O)cccc21 [Danthron] (10 µM)
inactive: [1] 0 | [2] 0 | [3] 0 | [4] 0 | [5] 0 | [6] 0 | [7] 0 | [8] 0 | [9] 0 | [10] 0

CC(C)(C)S(=O)(=O)c1cc2c(Nc3ccc4scnc4c3)ccnc2cc1OCCOCCOCCOCCOCC(=O)Nc1cccc2c1CN(C1CCC(=O)NC1=O)C2=O (stereo not given) [PROTAC RIPK degrader-6] (10 µM)
inactive: [1] 0 | [2] 0 | [3] 0 | [4] 0 | [5] 0 | [6] 0 | [7] 0 | [8] 0 | [9] 0 | [10] 0

Cn1cc(-c2ccc3ncc(Cc4ccc5ncccc5c4)n3n2)cn1 (10 µM)
inactive: [1] 0 | [2] 0 | [3] 0 | [4] 0 | [5] 0 | [6] 0 | [7] 0 | [8] 0 | [9] 0 | [10] 0

CC(=O)NCC(=O)N[C@@H](C)C(=O)N[C@@H](CCC(N)=O)C(=O)N[C@@H](Cc1ccccc1)C(=O)N[C@@H](CO)C(=O)N[C@@H](CCCCN)C(=O)N[C@H](C(=O)N[C@@H](C)C(=O)N[C@@H](C)C(=O)N[C@@H](CCCCN)C(=O)O)[C@@H](C)O (10 µM)
inactive: [1] 0 | [2] 0 | [3] 0 | [4] 0 | [5] 0 | [6] 0 | [7] 0 | [8] 0 | [9] 0 | [10] 0
